Screen size: about 320,000 compounds; about 2,100 (0.66%) were called active. The shares of active, inactive and inconclusive entries below differ from those in the screen. Calls come from the whole dose curve; as a rule, active = well fitted inhibition curve with a large enough effect in the signal ratio, with a control signal flat (not every such curve was filed as active); inconclusive = small, poorly fitted or top-dose-only effect, or effect the other way, or a change in a side signal; inactive = flat fitted curve, though single readings scatter; the % refers to the signal ratio. Potencies of inconclusive entries are doubtful fits and often do not repeat.
Test: qHTS Assay for Lipid Storage Modulators in Drosophila S3 Cells
Conditions: BODIPY lipid droplet fluorescence, 18-24 h, cells fed with added oleic acid; lipid storage change, negative = inhibition: at 46.1 µM (top of the series) unless noted
Procedure, shortened: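 Drosophila S3 cells loaded with oleic acid (400 uM, as added) and compounds at several concentrations; lipid droplets imaged by 488-nm laser-scanning cytometry, 500–530 nm intensity and object ratio to cell channel. Percent activity normalized to 20 uM Triacsin C.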
% is set by controls: 0 for no effect and ±100 for the full control effect; potency is the fitted concentration of half-maximal effect.

Row | Structure (SMILES) | lipid storage change, negative = inhibition | Potency
1 | COc1ccc(N2CCN(Cc3nnc(-c4ccccc4)o3)CC2)cc1 | inconclusive: 24.4% | 
2 | COc1ccccc1CNC(=S)NCc1ccc(F)cc1 | inconclusive: -14.1% | 
3 | Cc1ccccc1Cn1nc(C)c(NC(=O)c2cc(-c3cccs3)on2)c1C |  | inconclusive: 2.06 µM [activator, full curve, poor fit]
4 | O=C(NNC(=S)Nc1ccc(Cl)cc1)c1cccs1 | inconclusive: -9.94% | 
5 | CCN(CC)c1cccc(OC(=O)c2cccnc2Cl)c1 | inconclusive: 7.33% | 
6 | COc1ccc(S(=O)(=O)N2CCC(C(=O)NC(c3nc4ccccc4[nH]3)C(C)C)CC2)cc1 (stereo not given) | inconclusive: 3.2% | 
7 | COc1cc(OC)c2ccc(=O)oc2c1C(CC(=O)N1CCCC1)c1ccc2c(c1)OCO2 (stereo not given) | inconclusive: 9.31% | 
8 | Cc1cccc(/N=C/c2nc(-c3ccccc3Br)oc2O)n1 | inactive: 8.31% | 
9 | COC(=O)c1cccc(COC(=O)c2ccccc2NC(=O)c2ccco2)c1 | inconclusive: 19.9% | 
10 | O=C(Cc1ccc(F)cc1)Nc1cccc(S(=O)(=O)N2CCCC2)c1 | inconclusive | 
11 | Cc1c(Cc2ccccc2)c(=O)oc2c(C)c(OCC(=O)NCC3CCC(C(=O)O)CC3)ccc12 (stereo not given) | inconclusive: 18.1% | 
12 | Cc1cccc(C(=O)N2CCC(=O)N(C(COCc3cccc(C(F)(F)F)c3)Cc3ccccc3)CC2)c1 (stereo not given) | inconclusive: 27.4% | 
13 | O=C(Nc1cc(S(=O)(=O)N2CCCCC2)ccc1Cl)c1ccccc1NS(=O)(=O)c1ccc(F)cc1 | inconclusive: -30.3% | 
14 | CCNc1sc(C(=O)c2cccs2)c(N)c1-c1nc2ccccc2s1 |  | inconclusive: 29.1 µM [cytotoxic, single point]
15 | O=C(Nc1nc2ccsc2c(=O)s1)c1ccc(F)cc1Cl | inconclusive: -16.6% | 
16 | O=C(Nc1cccnc1)c1cc(S(=O)(=O)N2CCOCC2)ccc1Br | inconclusive: 39% [activator] [at 0.00295 µM] | 
17 | O=S(=O)(c1ccc2ccccc2c1)N1CCCCC1 |  | inconclusive: 0.116 µM [falling, full curve, poor fit]
18 | CSc1ncc(Cl)c(C(=O)Nc2sc3c(c2C(=O)NCc2ccco2)CCCC3)n1 | inconclusive: -2.45% | 
19 | COc1ccc(CNC(=O)COC(=O)C2CC2C)cc1OC (stereo not given) |  | inconclusive: 29.1 µM [falling, single point]
20 | COC(=O)c1nnn(Cc2ccccc2)c1N | inconclusive: 23.5% | 

Row | Structure (SMILES) | lipid storage change, negative = inhibition | Potency
21 | CC(C)NC(=O)c1cnc(Sc2ncc(C(F)(F)F)cc2Cl)n1C | inconclusive: 0.438% | 
22 | CCOC(=O)c1c(-c2ccc(C)o2)csc1NC(=S)NC(=O)c1ccc(F)cc1 |  | inconclusive: 0.259 µM [activator, partial curve, poor fit]
23 | CC(=O)c1ccc(O)c(CSc2nncn2C)c1 | inconclusive: -3.48% | 
24 | CCOc1cc(/C=N/Nc2cccc(C(=O)O)c2)ccc1OC(=O)c1ccccc1 | inconclusive: -1.51% | 
25 | COc1ccc(/C=N/NC(=O)c2cc(C34CC5CC(CC(C5)C3)C4)[nH]n2)cc1OC | inconclusive: -61.7% | 
26 | CN1/C(=C\C(=S)NC(=O)c2ccccc2Cl)C(C)(C)c2ccccc21 |  | inconclusive: 25.9 µM [falling, single point]
27 | Cc1ccc(Nc2nc(-c3ccccc3)c(CC(=O)O)s2)cc1 | inconclusive: 20.9% | 
28 | Cc1ccc(NC(=O)COC(=O)c2ccccc2-c2nc3ccccc3s2)c(C)c1 |  | inconclusive: 6.51 µM [activator, partial curve, poor fit]
29 | C=CCNC(=O)c1sc(=S)n(-c2ccc(C(=O)OCC)cc2)c1N |  | inconclusive: 14.6 µM [activator, partial curve, poor fit]
30 | COC(=O)c1sccc1-n1cccc1C(=O)NCc1ccccc1 | inconclusive: 11.5% | 
31 | N/C(=N\OC(=O)Cc1ccccc1[N+](=O)[O-])c1cccc(Br)c1 | inactive: -1.94% | 
32 | Cc1c(Cl)cccc1NC(=O)CCNC(=O)N1CC(=O)Nc2ccccc21 | inconclusive: -6.06% | 
33 | COc1ccc(OC)c(-c2nnc(SCC(=O)N3CCOCC3)o2)c1 | inconclusive: 22.2% | 
34 | COC(=O)c1sc(S(=O)(=O)Nc2c(C)nn(C)c2C)c(C(=O)OC)c1C | inconclusive | 
35 | COc1ccccc1-n1nnnc1SCC(=O)Nc1cc(C)on1 | inconclusive: -5.01% | 
36 | COC(=O)C1CCN(C(=O)COC(=O)c2cc(-c3ccccc3)nc3ccc(OC)cc23)CC1 |  | inconclusive: 0.0461 µM [activator, partial curve, poor fit]
37 | Cc1cc(CNC(=O)c2cc(-c3ccccc3)nc3ccccc23)nn1C | inconclusive: 25% | 
38 | CC(C)(O)C#CC#CCN1CCOCC1 |  | inconclusive: 29.1 µM [falling, single point]
39 | CC(CNC1CCCCC1)OC(=O)c1ccccc1 (stereo not given) | inconclusive: -41.4% | 
40 | C/C(=N/OCc1ccc(Br)cc1)c1ccccn1 | inconclusive: -26% | 

Random excerpt: two records from the list.
Row | Structure (SMILES) | lipid storage change, negative = inhibition | Potency
30 | COC(=O)c1sccc1-n1cccc1C(=O)NCc1ccccc1 | inconclusive: 11.5% | 
28 | Cc1ccc(NC(=O)COC(=O)c2ccccc2-c2nc3ccccc3s2)c(C)c1 |  | inconclusive: 6.51 µM [activator, partial curve, poor fit]
